The substances below were run on mouse ADAMTS7 (assay: TMT10 TAILS N-terminomics, SMC2 experiment (process replicates, trypsin/AspN digest)). Conditions: SMC rd2 TAILS, AspGluN search; total spectral intensity of the N-terminal peptide (TAILS_id = gene_StartAA cleavage site).
Assay type: cell-based
Description: ADAMTS7 Expression, Cell Culture and Preparation of the Secreted Proteins—Full-length mouse Adamts7 1-1857 (Uniprot Q68SA9, WT or E373Q catalytic mutant) with a carboxyl terminal 3xFLAG tag was used to generate custom adenoviruses as previously described. Adeno-CMV-Luciferase (Ad-Luc) from Vector Biolabs was used as a negative control. Human Coronary Artery Smooth Muscle Cells (HCA-SMC) were obtained from Lonza and expanded in Lonza SmGM-2 media in 15 cm tissue culture plates. Twenty-four hours before media collection, near confluent plates were transduced with 50 MOI adenovirus and switched to Lonza Basal SM media with volumes of 20 ml per 15 cm plate. Expression of the Flag tagged ADAMTS7 was confirmed from the media using western blot and detected using the anti-Flag M2-HRP antibody (Sigma, A8592). Collected media was processed by adding protease inhibitors (1 mM EDTA and 1 mM PMSF) and clarified by 500 g×5 min spin at 4 C to pellet cell debris. Cell media supernatants were then passed through a 0.22 um filter and kept chilled. Processed media was then concentrated 50-100× using 3 kDa Centricon Plus-70 filter unit, spun at 3,500 g×60 min at 4 C. Approximately 10% of the processed, concentrated media was set aside for total secretome proteolytic analysis. The remaining 90% of the processed, concentrated media was buffer exchanged into 50 mM HEPES pH 8.0, 150 mM NaCl (2×50 ml) using the 3 kDa Centricon Plus-70 filter unit and concentrated to >2 mg/ml to serve as input for the TAILS experiment. Secretome and TAILS input samples were stored at −80° C.
For the first experiment, referred to as SMC1, 120 ml of media from 6×15 cm dishes was pooled from each condition (Luc, WT, EQ) and processed to produce three separate inputs for the TAILS experiment. Luc, WT and EQ inputs from the SMC1 experiment were each divided into triplicate 400 ug samples to generate technical replicate TAILS data. For the second experiment, referred to as SMC2, media was processed separately in triplicate for each condition (Luc1, Luc2, Luc3, WT1, WT2, WT3, EQ1, EQ2, EQ3) using 60 ml of media from 3×15 cm dishes for each process replicate. Inputs from the SMC2 experiment used process replicates of 300 ug each to generate TAILS data. The third experiment used input from cultured Human umbilical vein endothelial cells (HUVEC) from Lifeline Cell Technology grown in VascuLife Media and transduced in Lifeline Basal EC (+bFGF2 10 ng/ml). The HUVEC experiment used the same strategy as the SMC2 experiment, with 40 ml of media from 2×15 cm dishes for each process replicate and used 200 ug each to generate TAILS data. Inputs for process replicate experiments were restricted to the lowest concentration from the 9 parallel samples for SMC2 or HUVEC.
TMT10 isotopic labeling and negative selection of non-labeled peptides-Sample preparation was performed based on the TAILS protocol from the Overall lab with some modifications. From a single experiment, nine parallel protein samples in 50 mM HEPES pH 8.0, 150 mM NaCl were separately denatured with guanidinium chloride (Sigma, G4505) to reach a final concentration of 2.5M guanidinium chloride and 250 mM HEPES and incubated at 65° C. for 15 min. Reduction was achieved through addition of tris(2-carboxylethyl) phosphine (TCEP) at a final concentration of […] and incubated at 65° C. for 45 min. Alkylation reaction was performed with addition of iodoacetamide (IAA, Sigma, A3221) to a final concentration of 10 mM IAA for 15 min at room temperature in the dark. Following denaturation, reduction and alkylation steps, ten percent of each of the nine parallel protein samples was removed and combined to serve as a pooled reference. Isobaric tags were added to free amine groups using the TMT10plex Isobaric Mass Tagging Kit (ThermoFisher, 90113) with TMT channels randomly assigned to the nine samples and TMT 131 assigned to the pooled reference. […]

Q: “KRT28_2 (SLQFSNGSR; listed as Homo sapiens)” was tested. Which ATS7_SMC_rd2_TAILS_frxns_matS7inDB_AspGluN_retry.totalIntensity did it give?
A: The ATS7_SMC_rd2_TAILS_frxns_matS7inDB_AspGluN_retry.totalIntensity was 2.34E+08.

Q: “LOX_60 (LGSQYQPQR; listed as Homo sapiens)” was tested. Which ATS7_SMC_rd2_TAILS_frxns_matS7inDB_AspGluN_retry.totalIntensity did it give?
A: Its ATS7_SMC_rd2_TAILS_frxns_matS7inDB_AspGluN_retry.totalIntensity is 3.55E+08.

Q: How did the ATS7_SMC_rd2_TAILS_frxns_matS7inDB_AspGluN_retry.totalIntensity turn out when “FOXG1_235 (LNKCFVKVPRHY; listed as Homo sapiens)” was run?
A: The ATS7_SMC_rd2_TAILS_frxns_matS7inDB_AspGluN_retry.totalIntensity was 3.64E+07.

Q: “LTBP2_290 (QHVGLSR; listed as Homo sapiens)” was tested. Which ATS7_SMC_rd2_TAILS_frxns_matS7inDB_AspGluN_retry.totalIntensity did it give?
A: The ATS7_SMC_rd2_TAILS_frxns_matS7inDB_AspGluN_retry.totalIntensity was 9.07E+08.

Q: How did the ATS7_SMC_rd2_TAILS_frxns_matS7inDB_AspGluN_retry.totalIntensity turn out when “LASP1_182 (SYGGYKEPAAPVSIQR; listed as Homo sapiens)” was run?
A: Its ATS7_SMC_rd2_TAILS_frxns_matS7inDB_AspGluN_retry.totalIntensity is 1.27E+08.

Q: How did the ATS7_SMC_rd2_TAILS_frxns_matS7inDB_AspGluN_retry.totalIntensity turn out when “POSTN_727 (IITGPEIKYTR; listed as Homo sapiens)” was run?
A: The ATS7_SMC_rd2_TAILS_frxns_matS7inDB_AspGluN_retry.totalIntensity was 6.22E+09.

Q: With “PAK4_141 (HSEAGGGSG; listed as Homo sapiens)” as the substance, how does the ATS7_SMC_rd2_TAILS_frxns_matS7inDB_AspGluN_retry.totalIntensity read?
A: Its ATS7_SMC_rd2_TAILS_frxns_matS7inDB_AspGluN_retry.totalIntensity is 3.77E+06.

Q: With “LTBP3_103 (LTGSGFR; listed as Homo sapiens)” as the substance, how does the ATS7_SMC_rd2_TAILS_frxns_matS7inDB_AspGluN_retry.totalIntensity read?
A: The ATS7_SMC_rd2_TAILS_frxns_matS7inDB_AspGluN_retry.totalIntensity was 3.47E+09.

Q: Which ATS7_SMC_rd2_TAILS_frxns_matS7inDB_AspGluN_retry.totalIntensity does the source give for “MMP1_185 (FQPGPGIGG; listed as Homo sapiens)” here?
A: The ATS7_SMC_rd2_TAILS_frxns_matS7inDB_AspGluN_retry.totalIntensity was 6.29E+07.

Q: “LOXL1_157 (SVSASAFASTYR; listed as Homo sapiens)” was tested. Which ATS7_SMC_rd2_TAILS_frxns_matS7inDB_AspGluN_retry.totalIntensity did it give?
A: The ATS7_SMC_rd2_TAILS_frxns_matS7inDB_AspGluN_retry.totalIntensity was 9.17E+06.

Same assay, conditions: total intensity of the N-terminal peptide spectra, SMC rd2 TAILS fractions, AspN/GluC search

Q: “CALU_176 (FTAFLHPEEY; listed as Homo sapiens)” was tested. Which ATS7_SMC_rd2_TAILS_frxns_matS7inDB_AspGluN_retry.totalIntensity did it give?
A: The ATS7_SMC_rd2_TAILS_frxns_matS7inDB_AspGluN_retry.totalIntensity was 1.25E+09.

Q: With “FLNA_689 (VNKPAEFTV; listed as Homo sapiens)” as the substance, how does the ATS7_SMC_rd2_TAILS_frxns_matS7inDB_AspGluN_retry.totalIntensity read?
A: The ATS7_SMC_rd2_TAILS_frxns_matS7inDB_AspGluN_retry.totalIntensity was 3.19E+09.

Q: Which ATS7_SMC_rd2_TAILS_frxns_matS7inDB_AspGluN_retry.totalIntensity does the source give for “AMER2_654 (LAGTTIRATACH; listed as Homo sapiens)” here?
A: The ATS7_SMC_rd2_TAILS_frxns_matS7inDB_AspGluN_retry.totalIntensity was 2.57E+08.

Q: How did the ATS7_SMC_rd2_TAILS_frxns_matS7inDB_AspGluN_retry.totalIntensity turn out when “CTSB 109 (WAFGAVEAIS; listed as Homo sapiens)” was run?
A: The ATS7_SMC_rd2_TAILS_frxns_matS7inDB_AspGluN_retry.totalIntensity was 1.80E+07.

Q: Which ATS7_SMC_rd2_TAILS_frxns_matS7inDB_AspGluN_retry.totalIntensity does the source give for “EMSY_943 (QTVVQVLAVK; listed as Homo sapiens)” here?
A: Its ATS7_SMC_rd2_TAILS_frxns_matS7inDB_AspGluN_retry.totalIntensity is 7.48E+08.

Q: Which ATS7_SMC_rd2_TAILS_frxns_matS7inDB_AspGluN_retry.totalIntensity does the source give for “ACTN4_5 (HAANQSYQYGPSSAGNGAGGGGSMG; listed as Homo sapiens)” here?
A: Its ATS7_SMC_rd2_TAILS_frxns_matS7inDB_AspGluN_retry.totalIntensity is 2.33E+08.

Q: Which ATS7_SMC_rd2_TAILS_frxns_matS7inDB_AspGluN_retry.totalIntensity does the source give for “APLP2_452 (LVETHLAR; listed as Homo sapiens)” here?
A: Its ATS7_SMC_rd2_TAILS_frxns_matS7inDB_AspGluN_retry.totalIntensity is 6.72E+08.

Q: With “ADAM10_86 (FKVETSNKVL; listed as Homo sapiens)” as the substance, how does the ATS7_SMC_rd2_TAILS_frxns_matS7inDB_AspGluN_retry.totalIntensity read?
A: Its ATS7_SMC_rd2_TAILS_frxns_matS7inDB_AspGluN_retry.totalIntensity is 1.44E+07.

Q: With “DBN1_434 (APVEPATA; listed as Homo sapiens)” as the substance, how does the ATS7_SMC_rd2_TAILS_frxns_matS7inDB_AspGluN_retry.totalIntensity read?
A: Its ATS7_SMC_rd2_TAILS_frxns_matS7inDB_AspGluN_retry.totalIntensity is 3.49E+08.

Q: For “ACTG1_105 (LTEAPLNPKANR; listed as Homo sapiens)”, which ATS7_SMC_rd2_TAILS_frxns_matS7inDB_AspGluN_retry.totalIntensity is on record?
A: The ATS7_SMC_rd2_TAILS_frxns_matS7inDB_AspGluN_retry.totalIntensity was 1.52E+08.

Q: With “CCL2_28 (INAPVTCCYNFTNR; listed as Homo sapiens)” as the substance, how does the ATS7_SMC_rd2_TAILS_frxns_matS7inDB_AspGluN_retry.totalIntensity read?
A: Its ATS7_SMC_rd2_TAILS_frxns_matS7inDB_AspGluN_retry.totalIntensity is 3.12E+08.

Q: With “BMPER_43 (LTGSVAKCENEG; listed as Homo sapiens)” as the substance, how does the ATS7_SMC_rd2_TAILS_frxns_matS7inDB_AspGluN_retry.totalIntensity read?
A: The ATS7_SMC_rd2_TAILS_frxns_matS7inDB_AspGluN_retry.totalIntensity was 1.92E+09.

Q: How did the ATS7_SMC_rd2_TAILS_frxns_matS7inDB_AspGluN_retry.totalIntensity turn out when “ECM1_44 (AAPPSPPLSR; listed as Homo sapiens)” was run?
A: The ATS7_SMC_rd2_TAILS_frxns_matS7inDB_AspGluN_retry.totalIntensity was 1.31E+09.

Q: For “FN1_99 (DKYTGNTYR; listed as Homo sapiens)”, which ATS7_SMC_rd2_TAILS_frxns_matS7inDB_AspGluN_retry.totalIntensity is on record?
A: The ATS7_SMC_rd2_TAILS_frxns_matS7inDB_AspGluN_retry.totalIntensity was 2.24E+10.

Q: Which ATS7_SMC_rd2_TAILS_frxns_matS7inDB_AspGluN_retry.totalIntensity does the source give for “EEF1G 23 (QYSGAQVR; listed as Homo sapiens)” here?
A: Its ATS7_SMC_rd2_TAILS_frxns_matS7inDB_AspGluN_retry.totalIntensity is 1.67E+08.

Q: For “ADNP2_375 (SQPVGPVNK; listed as Homo sapiens)”, which ATS7_SMC_rd2_TAILS_frxns_matS7inDB_AspGluN_retry.totalIntensity is on record?
A: Its ATS7_SMC_rd2_TAILS_frxns_matS7inDB_AspGluN_retry.totalIntensity is 4.60E+09.

Q: Which ATS7_SMC_rd2_TAILS_frxns_matS7inDB_AspGluN_retry.totalIntensity does the source give for “FN1_1693 (LQPTVEYVVSVYAQNPSG; listed as Homo sapiens)” here?
A: The ATS7_SMC_rd2_TAILS_frxns_matS7inDB_AspGluN_retry.totalIntensity was 1.01E+10.

Q: “CEP192_728 (DKSTAGR; listed as Homo sapiens)” was tested. Which ATS7_SMC_rd2_TAILS_frxns_matS7inDB_AspGluN_retry.totalIntensity did it give?
A: The ATS7_SMC_rd2_TAILS_frxns_matS7inDB_AspGluN_retry.totalIntensity was 1.43E+09.

From patent US20240368668A1, “SUBSTRATES AND BIOMARKERS OF ADAMTS7” (The Broad Institute, Inc., priority 2021, published 2024)
